## Screening data, single-dose tests

By UniProt entry, the sequences of proteins in these tests, tags left out.
UniProt P9WNZ1, whole entry: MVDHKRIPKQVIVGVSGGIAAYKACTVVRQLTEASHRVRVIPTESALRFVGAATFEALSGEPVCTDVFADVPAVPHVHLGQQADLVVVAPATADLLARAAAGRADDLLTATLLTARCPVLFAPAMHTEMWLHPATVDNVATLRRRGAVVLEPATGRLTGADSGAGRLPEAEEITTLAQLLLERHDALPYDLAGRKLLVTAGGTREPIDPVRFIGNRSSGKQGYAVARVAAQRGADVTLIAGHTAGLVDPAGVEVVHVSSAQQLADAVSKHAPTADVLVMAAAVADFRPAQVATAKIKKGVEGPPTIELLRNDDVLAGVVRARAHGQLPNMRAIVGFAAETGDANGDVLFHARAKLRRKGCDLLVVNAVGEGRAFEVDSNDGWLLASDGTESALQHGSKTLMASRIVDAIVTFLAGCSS

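Coenzyme A biosynthesis protein CoaBC, Mycobacterium tuberculosis (UniProt P9WNZ1). Enzyme assay of CoaBC with a phosphate dye (Biomol Green) read at 650 nm. Tested at 30 µM. Higher reads as stronger inhibition, judged from the few compounds that gave an IC50. Most strong results did not repeat in a second test. About 67,000 compounds were tested under these conditions; 0.06% (about 40) showed 50% or more at least once.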

The filed quantity is “Percent Effect” (%). The controls that fix the scale are not given in the record; negative values are as filed. Compounds were drawn at random from those tested, without regard to their results.

{"compound": "COCCCN1Cc2cccc(NC(=O)c3cc(F)ccc3F)c2C1", "effect": 0}
{"compound": "O=C(c1ccco1)N1CC[C@@H]2O[C@H](COCCN3CCCC3)CC[C@@H]21", "effect": -26.57}
{"compound": "CS(=O)(=O)N[C@@H]1CN(C(=O)c2cccnc2)[C@@H]2CCCO[C@@H]21", "effect": -5.071}
{"compound": "COc1ccc(CNC(C)c2cnn(C)c2)cc1OC1CCCC1", "stereo": "centres undefined", "effect": 3.236}
{"compound": "CCCC(=O)N1CCN(CC(O)COCC)CC1", "stereo": "centres undefined", "effect": 1.746}
{"compound": "CC(C)NC(=O)c1cc(-c2ccc(S(C)(=O)=O)cc2)c2cnn(C)c2n1", "effect": -5.526}
{"compound": "CC(CC(=O)NCCNS(C)(=O)=O)C1CCCCC1", "stereo": "centres undefined", "effect": 0.7264}
{"compound": "Cc1nn(C)c(C)c1-c1cnc(C2CCCN(S(C)(=O)=O)C2)cn1", "stereo": "centres undefined", "effect": 1.611}
{"compound": "COc1ncccc1CNC(=O)c1c(C)oc(C)c1C", "effect": 3.836}
{"compound": "Nc1nc(CCCNC(=O)C2CCCN(Cc3ccco3)C2)cs1", "stereo": "centres undefined", "effect": 5.141}
{"compound": "Cc1ccc(NC(=O)N2CCC(CO)(Nc3ccccc3)CC2)cc1", "effect": -2.013}
{"compound": "O=S(=O)(NCCc1nnc2ccccn12)c1cccnc1", "effect": -5.366}
{"compound": "COc1cccc(N2CCN(Cc3ccc4ccn(C)c4c3)CC2=O)c1", "effect": 4.212}
{"compound": "O=C1CC2(CCN(Cc3cccnc3)C2)CN1c1cccc(F)c1", "stereo": "centres undefined", "effect": 5.14}
{"compound": "COc1cccc(CNC(Cc2cccs2)c2nc(C)c(C)s2)c1OC", "stereo": "centres undefined", "effect": 0}
{"compound": "Cc1csc2ncnc(N3CCCC(Cn4cc(C(C)(C)O)nn4)C3)c12", "stereo": "centres undefined", "effect": 4.369}
{"compound": "N#Cc1ccc(OCCn2cccn2)cc1", "effect": 1.899}
{"compound": "CC(=O)N1CCCC(c2ccnc(Nc3cnccn3)n2)C1", "stereo": "centres undefined", "effect": 1.937}
{"compound": "O=C(C1CC1)N1CCC2(CC1)COCCN2Cc1ccc(F)cc1", "effect": 1.014}
{"compound": "Cc1nn(CC(=O)N2CCC(Nc3cccnn3)CC2)c(C)c1Cl", "effect": -1.596}
{"compound": "CC(C)CN1CCn2c(nc3cc(C(=O)NC(C)C)ccc32)C1", "effect": -1.842}
{"compound": "CNC(=O)CN1CCOCC2(CCCN(CCc3ccccc3)C2)C1", "stereo": "centres undefined", "effect": 6.353}
{"compound": "Cc1cc(C)n(CC2CCCCN2CCc2ccncc2)n1", "stereo": "centres undefined", "effect": -1.79}
{"compound": "CNC(=O)CN1C(=O)CCC12CCCN(Cc1cccc(F)c1)C2", "stereo": "centres undefined", "effect": 4.071}
{"compound": "COc1ccc(CCN2CC(c3nc(CSC)no3)CCC2=O)cc1", "stereo": "centres undefined", "effect": 0.5141}
{"compound": "Cc1cc(O)nc(C2CCN(C(=O)CO)CC2)n1", "effect": 0.2392}
{"compound": "CCc1ncc(C(=O)NCCN(C)S(C)(=O)=O)cn1", "effect": 0.6494}
{"compound": "CNc1c(NCc2ccco2)c(=O)c1=O", "effect": 1.453}
{"compound": "COc1ccc(COCC(O)CNC(=O)c2cc(C)oc2C)cc1", "stereo": "centres undefined", "effect": -1.654}
{"compound": "COc1coc(CN2CCCC(CCc3ccc(F)c(F)c3)C2)cc1=O", "stereo": "centres undefined", "effect": 1.29}
{"compound": "O=c1c2cc3c(cc2nnn1Cc1cccc(F)c1)OCCO3", "effect": 2.041}
{"compound": "CC(C)c1ncc2c(n1)CN(Cc1nc3c(F)cccc3[nH]1)CC2", "effect": 0.2415}
{"compound": "Cc1cccc(OCCN2CCN(Cc3noc(C)n3)CC2)c1", "effect": 2.999}
{"compound": "COCCN1CCN(CC(=O)N(C)Cc2ccccc2)CC1C", "stereo": "centres undefined", "effect": 0.9662}
{"compound": "c1cnc(N2CCC(c3n[nH]c4ncccc34)C2)nc1", "stereo": "centres undefined", "effect": 6.311}

Once more, the final 3:

{"compound": "Cc1cccc(OCCN2CCN(Cc3noc(C)n3)CC2)c1", "effect": 2.999}
{"compound": "COCCN1CCN(CC(=O)N(C)Cc2ccccc2)CC1C", "stereo": "centres undefined", "effect": 0.9662}
{"compound": "c1cnc(N2CCC(c3n[nH]c4ncccc34)C2)nc1", "stereo": "centres undefined", "effect": 6.311}

From ChEMBL document CHEMBL3988442, “University of Dundee, Small-Polar-MMV Screening Library” (2021).